# In PMC9289542:
# Chains of the proteins cited; added tags and fusions are not shown. Residues count along the entry.
# UniProt P36543: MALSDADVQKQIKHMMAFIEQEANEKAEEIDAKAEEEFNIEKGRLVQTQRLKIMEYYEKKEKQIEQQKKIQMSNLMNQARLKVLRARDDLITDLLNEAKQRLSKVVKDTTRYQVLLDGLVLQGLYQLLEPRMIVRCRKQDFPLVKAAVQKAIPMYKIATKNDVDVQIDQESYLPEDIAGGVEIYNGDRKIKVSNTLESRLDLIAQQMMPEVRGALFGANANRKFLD
# UniProt Q8NBS9, residues 33-432: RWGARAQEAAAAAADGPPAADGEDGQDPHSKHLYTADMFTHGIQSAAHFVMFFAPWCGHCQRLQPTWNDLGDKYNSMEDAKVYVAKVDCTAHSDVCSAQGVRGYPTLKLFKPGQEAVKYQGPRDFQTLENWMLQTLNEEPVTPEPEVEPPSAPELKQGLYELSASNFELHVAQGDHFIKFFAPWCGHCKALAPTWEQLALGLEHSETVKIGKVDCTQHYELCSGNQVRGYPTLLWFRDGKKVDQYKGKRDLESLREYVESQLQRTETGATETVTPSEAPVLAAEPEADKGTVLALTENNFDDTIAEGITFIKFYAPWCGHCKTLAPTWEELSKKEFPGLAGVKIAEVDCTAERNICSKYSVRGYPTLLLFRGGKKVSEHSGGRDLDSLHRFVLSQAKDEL
# UniProt P49821, residues 21-464: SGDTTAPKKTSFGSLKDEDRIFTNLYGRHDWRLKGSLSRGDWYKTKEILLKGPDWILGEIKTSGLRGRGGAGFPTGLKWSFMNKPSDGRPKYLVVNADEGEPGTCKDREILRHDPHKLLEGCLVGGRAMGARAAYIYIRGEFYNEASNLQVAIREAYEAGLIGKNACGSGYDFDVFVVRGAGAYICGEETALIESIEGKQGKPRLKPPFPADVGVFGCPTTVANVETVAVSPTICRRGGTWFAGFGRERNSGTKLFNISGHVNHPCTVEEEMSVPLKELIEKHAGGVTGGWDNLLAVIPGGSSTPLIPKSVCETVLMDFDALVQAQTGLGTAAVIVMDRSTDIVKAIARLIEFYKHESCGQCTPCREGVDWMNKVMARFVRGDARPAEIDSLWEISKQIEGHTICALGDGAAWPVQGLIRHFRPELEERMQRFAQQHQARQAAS
# UniProt P03891: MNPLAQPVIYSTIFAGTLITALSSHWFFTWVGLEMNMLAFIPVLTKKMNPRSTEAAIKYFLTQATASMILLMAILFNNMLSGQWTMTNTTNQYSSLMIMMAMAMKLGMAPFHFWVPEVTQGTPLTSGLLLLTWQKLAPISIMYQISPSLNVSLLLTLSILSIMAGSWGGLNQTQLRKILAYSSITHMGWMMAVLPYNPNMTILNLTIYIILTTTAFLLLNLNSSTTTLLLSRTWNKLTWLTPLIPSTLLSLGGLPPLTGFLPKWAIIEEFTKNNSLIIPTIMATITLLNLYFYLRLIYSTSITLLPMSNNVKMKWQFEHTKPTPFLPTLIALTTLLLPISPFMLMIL
# UniProt O60884: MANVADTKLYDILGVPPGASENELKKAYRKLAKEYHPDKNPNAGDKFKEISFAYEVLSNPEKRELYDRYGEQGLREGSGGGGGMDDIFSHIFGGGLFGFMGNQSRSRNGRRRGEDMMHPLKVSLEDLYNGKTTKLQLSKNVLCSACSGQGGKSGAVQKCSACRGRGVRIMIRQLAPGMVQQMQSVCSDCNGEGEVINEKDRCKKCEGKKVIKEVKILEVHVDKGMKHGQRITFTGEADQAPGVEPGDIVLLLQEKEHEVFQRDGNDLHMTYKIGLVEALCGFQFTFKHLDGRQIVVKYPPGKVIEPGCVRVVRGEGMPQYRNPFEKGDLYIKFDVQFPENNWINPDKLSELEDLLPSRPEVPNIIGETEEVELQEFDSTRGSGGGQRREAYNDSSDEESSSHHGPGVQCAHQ
# UniProt P25685: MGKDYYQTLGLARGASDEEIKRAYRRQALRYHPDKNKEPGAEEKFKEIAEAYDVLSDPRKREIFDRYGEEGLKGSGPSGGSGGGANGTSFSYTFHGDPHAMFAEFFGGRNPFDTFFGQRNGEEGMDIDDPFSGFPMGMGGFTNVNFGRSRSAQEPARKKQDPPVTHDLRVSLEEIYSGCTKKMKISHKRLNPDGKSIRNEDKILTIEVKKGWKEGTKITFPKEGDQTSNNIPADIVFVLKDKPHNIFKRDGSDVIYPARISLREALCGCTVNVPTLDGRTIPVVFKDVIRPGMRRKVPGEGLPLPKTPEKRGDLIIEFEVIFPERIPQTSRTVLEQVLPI
# UniProt P07237, residues 18-508: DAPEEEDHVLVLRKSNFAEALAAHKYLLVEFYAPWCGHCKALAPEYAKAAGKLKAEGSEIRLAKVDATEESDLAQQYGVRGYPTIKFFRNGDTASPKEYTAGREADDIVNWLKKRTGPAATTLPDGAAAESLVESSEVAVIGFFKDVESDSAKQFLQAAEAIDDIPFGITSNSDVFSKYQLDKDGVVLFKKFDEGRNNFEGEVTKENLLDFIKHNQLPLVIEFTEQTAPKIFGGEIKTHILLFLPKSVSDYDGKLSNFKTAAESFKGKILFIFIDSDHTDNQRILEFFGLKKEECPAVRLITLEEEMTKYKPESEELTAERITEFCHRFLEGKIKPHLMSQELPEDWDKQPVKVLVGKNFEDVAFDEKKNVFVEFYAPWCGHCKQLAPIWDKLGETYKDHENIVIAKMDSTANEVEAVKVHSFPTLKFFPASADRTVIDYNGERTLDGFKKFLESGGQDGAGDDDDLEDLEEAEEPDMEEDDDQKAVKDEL
# UniProt P27824, residues 21-592: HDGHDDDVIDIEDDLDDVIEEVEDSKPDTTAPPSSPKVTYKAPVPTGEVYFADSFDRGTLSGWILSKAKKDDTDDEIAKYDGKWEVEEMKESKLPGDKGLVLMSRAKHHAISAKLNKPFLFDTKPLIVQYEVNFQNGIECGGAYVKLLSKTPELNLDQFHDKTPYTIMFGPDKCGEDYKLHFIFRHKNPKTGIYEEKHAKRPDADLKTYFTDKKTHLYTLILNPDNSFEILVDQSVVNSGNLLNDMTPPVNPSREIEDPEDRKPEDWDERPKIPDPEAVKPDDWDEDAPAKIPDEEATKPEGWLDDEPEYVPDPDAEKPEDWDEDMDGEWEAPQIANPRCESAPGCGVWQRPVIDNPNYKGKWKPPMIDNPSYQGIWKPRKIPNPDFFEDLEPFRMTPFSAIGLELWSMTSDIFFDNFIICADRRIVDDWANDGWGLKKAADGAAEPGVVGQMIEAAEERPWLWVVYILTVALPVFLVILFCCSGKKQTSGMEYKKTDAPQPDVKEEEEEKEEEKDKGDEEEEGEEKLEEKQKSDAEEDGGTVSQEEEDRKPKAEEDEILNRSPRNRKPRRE
# UniProt O95757: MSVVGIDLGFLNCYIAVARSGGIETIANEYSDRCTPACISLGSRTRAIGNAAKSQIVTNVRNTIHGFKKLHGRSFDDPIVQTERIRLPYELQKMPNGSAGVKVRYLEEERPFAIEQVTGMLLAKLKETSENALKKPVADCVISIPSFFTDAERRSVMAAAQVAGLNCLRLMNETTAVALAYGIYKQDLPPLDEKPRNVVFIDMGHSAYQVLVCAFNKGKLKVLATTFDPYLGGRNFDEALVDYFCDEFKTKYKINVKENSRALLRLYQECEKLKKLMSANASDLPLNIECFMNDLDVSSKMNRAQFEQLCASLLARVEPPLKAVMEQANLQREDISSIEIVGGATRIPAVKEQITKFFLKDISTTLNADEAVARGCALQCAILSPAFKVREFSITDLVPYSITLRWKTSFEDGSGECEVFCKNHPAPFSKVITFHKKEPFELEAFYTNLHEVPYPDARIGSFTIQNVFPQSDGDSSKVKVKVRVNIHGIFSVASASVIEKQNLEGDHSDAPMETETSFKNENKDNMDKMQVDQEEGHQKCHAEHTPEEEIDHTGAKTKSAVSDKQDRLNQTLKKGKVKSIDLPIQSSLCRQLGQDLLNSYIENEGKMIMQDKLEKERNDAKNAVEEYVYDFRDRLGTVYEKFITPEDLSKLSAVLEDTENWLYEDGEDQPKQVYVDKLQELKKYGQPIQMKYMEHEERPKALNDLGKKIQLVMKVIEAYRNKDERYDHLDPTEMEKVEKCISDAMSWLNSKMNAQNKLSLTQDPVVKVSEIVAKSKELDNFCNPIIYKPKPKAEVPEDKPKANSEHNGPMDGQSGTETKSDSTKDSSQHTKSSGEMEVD
# UniProt P15313: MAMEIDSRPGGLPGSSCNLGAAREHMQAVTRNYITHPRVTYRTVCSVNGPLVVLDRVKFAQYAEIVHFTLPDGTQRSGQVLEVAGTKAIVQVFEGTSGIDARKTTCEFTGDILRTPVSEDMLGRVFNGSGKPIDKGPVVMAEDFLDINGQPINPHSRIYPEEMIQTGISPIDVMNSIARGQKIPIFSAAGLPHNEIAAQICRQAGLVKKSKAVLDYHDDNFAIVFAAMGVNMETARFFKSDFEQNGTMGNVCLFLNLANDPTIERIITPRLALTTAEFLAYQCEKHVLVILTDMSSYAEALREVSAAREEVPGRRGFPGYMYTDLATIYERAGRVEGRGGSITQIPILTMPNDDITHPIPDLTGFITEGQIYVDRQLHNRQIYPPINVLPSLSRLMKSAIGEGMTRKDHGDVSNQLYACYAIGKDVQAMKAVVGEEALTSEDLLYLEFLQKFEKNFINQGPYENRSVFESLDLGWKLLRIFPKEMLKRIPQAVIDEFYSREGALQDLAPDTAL
# UniProt O14556: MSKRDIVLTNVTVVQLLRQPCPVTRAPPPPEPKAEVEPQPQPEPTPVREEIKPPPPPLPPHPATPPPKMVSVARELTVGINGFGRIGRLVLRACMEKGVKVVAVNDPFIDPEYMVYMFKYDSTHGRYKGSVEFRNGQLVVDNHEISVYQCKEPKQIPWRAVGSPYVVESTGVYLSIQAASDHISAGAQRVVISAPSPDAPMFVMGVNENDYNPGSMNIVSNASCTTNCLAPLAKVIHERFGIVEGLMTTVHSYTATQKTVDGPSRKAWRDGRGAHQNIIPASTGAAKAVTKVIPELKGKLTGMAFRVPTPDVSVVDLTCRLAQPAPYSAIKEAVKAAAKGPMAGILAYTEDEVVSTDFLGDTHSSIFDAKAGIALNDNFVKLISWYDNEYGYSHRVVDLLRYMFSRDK
# UniProt P28331, residues 24-727: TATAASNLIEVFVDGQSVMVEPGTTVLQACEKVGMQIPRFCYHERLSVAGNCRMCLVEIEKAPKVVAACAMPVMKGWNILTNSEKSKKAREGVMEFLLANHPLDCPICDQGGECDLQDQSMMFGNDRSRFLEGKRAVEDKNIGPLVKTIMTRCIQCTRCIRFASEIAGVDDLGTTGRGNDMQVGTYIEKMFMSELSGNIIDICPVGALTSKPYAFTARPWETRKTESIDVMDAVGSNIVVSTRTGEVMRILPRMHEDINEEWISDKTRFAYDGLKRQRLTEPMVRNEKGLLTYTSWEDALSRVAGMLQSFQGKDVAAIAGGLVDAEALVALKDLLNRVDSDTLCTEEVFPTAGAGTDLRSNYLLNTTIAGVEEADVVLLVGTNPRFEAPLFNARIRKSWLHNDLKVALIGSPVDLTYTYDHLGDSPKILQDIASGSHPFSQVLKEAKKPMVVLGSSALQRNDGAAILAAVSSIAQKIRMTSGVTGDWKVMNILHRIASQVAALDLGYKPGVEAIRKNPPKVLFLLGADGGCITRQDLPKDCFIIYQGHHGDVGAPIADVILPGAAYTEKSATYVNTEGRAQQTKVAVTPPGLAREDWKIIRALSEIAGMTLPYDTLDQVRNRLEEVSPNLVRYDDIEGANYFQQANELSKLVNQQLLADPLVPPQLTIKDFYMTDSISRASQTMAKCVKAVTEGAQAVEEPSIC
# These are yes or no findings as the source states them, for the method shown. In cells and extracts the contact can be indirect. Here binding means that the protein was enriched with, or labelled near, the bait; the list need not be complete.
# T1: protein disulfide isomerase-associated 2 (human (endogenous in HT-29)) (UniProt Q13087)
# T1 sequence: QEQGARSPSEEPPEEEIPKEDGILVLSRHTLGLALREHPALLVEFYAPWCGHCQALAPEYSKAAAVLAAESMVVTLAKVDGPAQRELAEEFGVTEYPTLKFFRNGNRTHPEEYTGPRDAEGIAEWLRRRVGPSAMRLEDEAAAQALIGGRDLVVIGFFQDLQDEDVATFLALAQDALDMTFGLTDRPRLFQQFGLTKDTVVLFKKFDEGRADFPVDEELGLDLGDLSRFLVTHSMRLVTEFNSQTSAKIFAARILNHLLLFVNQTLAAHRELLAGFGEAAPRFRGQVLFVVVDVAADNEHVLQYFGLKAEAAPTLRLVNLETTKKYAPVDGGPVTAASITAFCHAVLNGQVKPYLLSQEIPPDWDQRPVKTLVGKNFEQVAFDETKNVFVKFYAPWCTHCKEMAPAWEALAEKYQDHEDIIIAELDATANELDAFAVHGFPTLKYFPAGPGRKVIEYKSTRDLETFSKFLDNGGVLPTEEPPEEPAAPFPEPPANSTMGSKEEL
# Biological target: T1, protein disulfide isomerase-associated 2 (human (endogenous in HT-29))
# Test: affinity purification with mass spectrometry; HT-29 total cell lysate (600 ug protein) precleared with protein A/G PLUS-agarose, incubated with 4 ug rabbit polyclonal anti-human PDIA2 antibody or rabbit IgG at 4 C overnight; 3 washes with lysis buffer; immune complexes used for proteomic profiling
row,Molecule,binding
1,ATP6V1E1 (from UniProt P36543 1-226),binds
2,TXNDC5 (from UniProt Q8NBS9 33-432),binds
3,NDUFV1 (from UniProt P49821 21-464),binds
4,MT-ND2 (from UniProt P03891 1-347),binds
5,DNAJA2 (from UniProt O60884 1-412),binds
6,DNAJB1 (from UniProt P25685 1-340),binds
7,P4HB (from UniProt P07237 18-508),binds
8,CANX (from UniProt P27824 21-592),binds
9,HSPA4L (from UniProt O95757 1-839),binds
10,ATP6V1B1 (from UniProt P15313 1-513),binds
11,GAPDHS (from UniProt O14556 1-408),binds
12,NDUFS1 (from UniProt P28331 24-727),binds
13,"HK2 (protein, UniProt P52789 1-917) MIASHLLAYFFTELNHDQVQKVDQYLYHMRLSDETLLEISKRFRKEMEKGLGATTHPTAAVKMLPTFVRSTPDGTEHGEFLALDLGGTNFRVLWVKVTDNGLQKVEMENQIYAIPEDIMRGSGTQLFDHIAECLANFMDKLQIKDKKLPLGFTFSFPCHQTKLDESFLVSWTKGFKSSGVEGRDVVALIRKAIQRRGDFDIDIVAVVNDTVGTMMTCGYDDHNCEIGLIVGTGSNACYMEEMRHIDMVEGDEGRMCINMEWGAFGDDGSLNDIRTEFDQEIDMGSLNPGKQLFEKMISGMYMGELVRLILVKMAKEELLFGGKLSPELLNTGRFETKDISDIEGEKDGIRKAREVLMRLGLDPTQEDCVATHRICQIVSTRSASLCAATLAAVLQRIKENKGEERLRSTIGVDGSVYKKHPHFAKRLHKTVRRLVPGCDVRFLRSEDGSGKGAAMVTAVAYRLADQHRARQKTLEHLQLSHDQLLEVKRRMKVEMERGLSKETHASAPVKMLPTYVCATPDGTEKGDFLALDLGGTNFRVLLVRVRNGKWGGVEMHNKIYAIPQEVMHGTGDELFDHIVQCIADFLEYMGMKGVSLPLGFTFSFPCQQNSLDESILLKWTKGFKASGCEGEDVVTLLKEAIHRREEFDLDVVAVVNDTVGTMMTCGFEDPHCEVGLIVGTGSNACYMEEMRNVELVEGEEGRMCVNMEWGAFGDNGCLDDFRTEFDVAVDELSLNPGKQRFEKMISGMYLGEIVRNILIDFTKRGLLFRGRISERLKTRGIFETKFLSQIESDCLALLQVRAILQHLGLESTCDDSIIVKEVCTVVARRAAQLCGAGMAAVVDRIRENRGLDALKVTVGVDGTLYKLHPHFAKVMHETVKDLAPKCDVSFLQSEDGSGKGAALITAVACRIREAGQR",binds
14,"ATP5O (protein, UniProt P48047 24-213) FAKLVRPPVQVYGIEGRYATALYSAASKQNKLEQVEKELLRVAQILKEPKVAASVLNPYVKRSIKVKSLNDITAKERFSPLTTNLINLLAENGRLSNTQGVVSAFSTMMSVHRGEVPCTVTSASPLEEATLSELKTVLKSFLSQGQVLKLEAKTDPSILGGMIVRIGEKYVDMSVKTKIQKLGRAMREIV",binds
15,"DNAJC3 (protein, UniProt Q13217 32-504) GVNADVEKHLELGKKLLAAGQLADALSQFHAAVDGDPDNYIAYYRRATVFLAMGKSKAALPDLTKVIQLKMDFTAARLQRGHLLLKQGKLDEAEDDFKKVLKSNPSENEEKEAQSQLIKSDEMQRLRSQALNAFGSGDYTAAIAFLDKILEVCVWDAELRELRAECFIKEGEPRKAISDLKAASKLKNDNTEAFYKISTLYYQLGDHELSLSEVRECLKLDQDHKRCFAHYKQVKKLNKLIESAEELIRDGRYTDATSKYESVMKTEPSIAEYTVRSKERICHCFSKDEKPVEAIRVCSEVLQMEPDNVNALKDRAEAYLIEEMYDEAIQDYETAQEHNENDQQIREGLEKAQRLLKQSQKRDYYKILGVKRNAKKQEIIKAYRKLALQWHPDNFQNEEEKKKAEKKFIDIAAAKEVLSDPEMRKKFDDGEDPLDAESQQGGGGNPFHRSWNSWQGFNPFSSGGPFRFKFHFN",binds
16,"HSPBP1 (protein, UniProt Q9NZL4 1-359) MSDEGSRGSRLPLALPPASQGCSSGGGGGGSSAGGSGNSRPPRNLQGLLQMAITAGSEEPDPPPEPMSEERRQWLQEAMSAAFRGQREEVEQMKSCLRVLSQPMPPTAGEAEQAADQQEREGALELLADLCENMDNAADFCQLSGMHLLVGRYLEAGAAGLRWRAAQLIGTCSQNVAAIQEQVLGLGALRKLLRLLDRDACDTVRVKALFAISCLVREQEAGLLQFLRLDGFSVLMRAMQQQVQKLKVKSAFLLQNLLVGHPEHKGTLCSMGMVQQLVALVRTEHSPFHEHVLGALCSLVTDFPQGVRECREPELGLEELLRHRCQLLQQHEEYQEELEFCEKLLQTCFSSPADDSMDR",binds
17,"LMAN1 (protein, UniProt P49257 31-510) DGVGGDPAVALPHRRFEYKYSFKGPHLVQSDGTVPFWAHAGNAIPSSDQIRVAPSLKSQRGSVWTKTKAAFENWEVEVTFRVTGRGRIGADGLAIWYAENQGLEGPVFGSADLWNGVGIFFDSFDNDGKKNNPAIVIIGNNGQIHYDHQNDGASQALASCQRDFRNKPYPVRAKITYYQNTLTVMINNGFTPDKNDYEFCAKVENMIIPAQGHFGISAATGGLADDHDVLSFLTFQLTEPGKEPPTPDKEISEKEKEKYQEEFEHFQQELDKKKEEFQKGHPDLQGQPAEEIFESVGDRELRQVFEGQNRIHLEIKQLNRQLDMILDEQRRYVSSLTEEISKRGAGMPGQHGQITQQELDTVVKTQHEILRQVNEMKNSMSETVRLVSGMQHPGSAGGVYETTQHFIDIKEHLHIVKRDIDNLVQRNMPSNEKPKCPELPPFPSCLSTVHFIIFVVVQTVLFIGYIMYRSQQEAAAKKFF",binds
18,"DERL1 (protein, UniProt Q9BUN8 1-251) MSDIGDWFRSIPAITRYWFAATVAVPLVGKLGLISPAYLFLWPEAFLYRFQIWRPITATFYFPVGPGTGFLYLVNLYFLYQYSTRLETGAFDGRPADYLFMLLFNWICIVITGLAMDMQLLMIPLIMSVLYVWAQLNRDMIVSFWFGTRFKACYLPWVILGFNYIIGGSVINELIGNLVGHLYFFLMFRYPMDLGGRNFLSTPQFLYRWLPSRRGGVSGFGVPPASMRRAADQNGGGGRHNWGQGFRLGDQ",binds
19,"PGLS (protein, UniProt O95336 1-258) MAAPAPGLISVFSSSQELGAALAQLVAQRAACCLAGARARFALGLSGGSLVSMLARELPAAVAPAGPASLARWTLGFCDERLVPFDHAESTYGLYRTHLLSRLPIPESQVITINPELPVEEAAEDYAKKLRQAFQGDSIPVFDLLILGVGPDGHTCSLFPDHPLLQEREKIVAPISDSPKPPPQRVTLTLPVLNAARTVIFVATGEGKAAVLKRILEDQEENPLPAALVQPHTGKLCWFLDEAAARLLTVPFEKHSTL",binds
20,"CII-30kDa SDHB (protein, UniProt P21912 29-280) AQTAAATAPRIKKFAIYRWDPDKAGDKPHMQTYEVDLNKCGPMVLDALIKIKNEVDSTLTFRRSCREGICGSCAMNINGGNTLACTRRIDTNLNKVSKIYPLPHMYVIKDLVPDLSNFYAQYKSIEPYLKKKDESQEGKQQYLQSIEEREKLDGLYECILCACCSTSCPSYWWNGDKYLGPAVLMQAYRWMIDSRDDFTEERLAKLQDPFSLYRCHTIMNCTRTCPKGLNPGKAIAEIKKMMATYKEKKASV",binds
